Source: the RNAGym collection of RNA variant scans (doi:10.1126/science.aae0568)
This sample is rich in variants without activity.

B1: tRNA (parent)
chain: GUUCCGUUGGCGUAAUGGUAACGCGUCUCCCUCCUAAGGAGAAGACUGCGGGUUCGAGUCCCGUACGGAACG

Variants of: B1
Test: yeast fitness relative to wild type (ratio to wild type); higher = fitter; tRNA-Arg(CCU), competitive growth, 37 C, YPD
Method in brief: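 Genotype frequency changes were the basis for Darwinian fitness relative to wild type. The frequencies came from 100-nucleotide paired-end sequencing of gene amplicons from the start population and each end population of pooled yeast strains with tRNA-Arg(CCU) gene variants at the native locus. Competition ran in YPD at 37°C for 24 hours in six replicates, genotypes needed ≥ 100 starting reads, and estimates < 0.5 were set to 0.5.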

G9C U26A A40C U47G and U8A G18A C30A U32A U35G C62U cannot be ordered by yeast fitness: no more than 0.5 for the first, no more than 0.5 for the second.

C4G C5U C55G A57G and A21G G23A C27G A37U G44A cannot be ordered by yeast fitness: no more than 0.5 for the first, no more than 0.5 for the second.

Going from U16A C24G C29G C31G A42G C61G to G12A C61G, the yeast fitness rises from no more than 0.5 to 0.605.

C4U C11U G44C A70U and C11A A14G G18A C24U G41C C55G cannot be ordered by yeast fitness: no more than 0.5 for the first, no more than 0.5 for the second.

First: G17C A70G
Second: C49U U54G C61U
The yeast fitness of the first is higher: 0.616 for the first, no more than 0.5 for the second.

G12C A15U C30U C60G and U3C C31U A65U A70U cannot be ordered by yeast fitness: no more than 0.5 for the first, no more than 0.5 for the second.

C27U C30U C34G A37C and A21U C34G A43U cannot be ordered by yeast fitness: no more than 0.5 for the first, no more than 0.5 for the second.

First: U2C C4U G10C
Second: U2C G48C
The yeast fitness of the first is lower: no more than 0.5 for the first, 1.11 for the second.

U35A A42C A69U A70U and G17A A20G C22U A45G C46U A69U cannot be ordered by yeast fitness: no more than 0.5 for the first, no more than 0.5 for the second.

G18A C22G C27G C49U and C5U G23C U32C A42G U54A cannot be ordered by yeast fitness: no more than 0.5 for the first, no more than 0.5 for the second.

Compared with G10A U13A, C4A U7G G12C A57U is lower in yeast fitness: 0.684 for the first, no more than 0.5 for the second.

Going from U19A C29A U32A to U26C A70G, the yeast fitness rises from no more than 0.5 to 0.915.

Going from U2G A21C C22U C31U C33U C62A to G9C U26C, the yeast fitness rises from no more than 0.5 to 0.612.

U3G A43G G63U U64A and U16A A40G A57C cannot be ordered by yeast fitness: no more than 0.5 for the first, no more than 0.5 for the second.

First: C4G G25A C60G G68C
Second: A14G C22U A45U
The yeast fitness of the first is lower: no more than 0.5 for the first, 0.626 for the second.

First: C4A U26G U32A G44C G58A G68C
Second: G6C C24U
The yeast fitness of the first is lower: no more than 0.5 for the first, 0.751 for the second.

C22G G44A G67C and C33A A40U C55U C62U cannot be ordered by yeast fitness: no more than 0.5 for the first, no more than 0.5 for the second.

C5U U8C A14U C30U G39C C60A A70C and G18A U26G G50C cannot be ordered by yeast fitness: no more than 0.5 for the first, no more than 0.5 for the second.

First: C29G C46U A57G
Second: C33G C46U A65U
The yeast fitness of the first is higher: 0.642 for the first, no more than 0.5 for the second.

Going from U8C A14G U32A to C5G A15G A42C C60A, the yeast fitness falls from 0.538 to no more than 0.5.

First: G41A C61A
Second: C46G C60A G67U
The yeast fitness of the first is higher: 0.742 for the first, 0.536 for the second.

G10A A20U C27U U35C G48C C60A and U2G C5A A20G C55G cannot be ordered by yeast fitness: no more than 0.5 for the first, no more than 0.5 for the second.

C5G U16G C29A and A21U A37U A70U cannot be ordered by yeast fitness: no more than 0.5 for the first, no more than 0.5 for the second.

Compared with G6C C11G A15G G68C, C22U C55U is higher in yeast fitness: 0.503 for the first, 0.686 for the second.

G6A C11A U19A A69G and C4G C24U U32C G39C cannot be ordered by yeast fitness: no more than 0.5 for the first, no more than 0.5 for the second.

First: C11G G12A U19C A69C
Second: U3A A57U A65C A69C
The yeast fitness of the first is lower: no more than 0.5 for the first, 0.593 for the second.

C4A G23A U28A G48A A70C and A15G C55G G56U cannot be ordered by yeast fitness: no more than 0.5 for the first, no more than 0.5 for the second.

Compared with C4G G25U U64G, C27U C33U C66U is higher in yeast fitness: no more than 0.5 for the first, 0.536 for the second.

Going from A42C C62U to C31U A40G G48C C66U, the yeast fitness falls from 0.829 to no more than 0.5.

C5A C24G A45C and U3G C22A G50A U64C cannot be ordered by yeast fitness: no more than 0.5 for the first, no more than 0.5 for the second.

Going from C5U A14G U26C to A15C C33A C55G C61G, the yeast fitness falls from 0.662 to no more than 0.5.

First: U7A C29G A69C
Second: C11U U59A
The yeast fitness of the first is lower: no more than 0.5 for the first, 0.757 for the second.

U7A G17A A45C U47A G50A and A37G C55A G58C cannot be ordered by yeast fitness: no more than 0.5 for the first, no more than 0.5 for the second.

Compared with A15C G58A C61G C62G, C4G U16C is higher in yeast fitness: no more than 0.5 for the first, 0.806 for the second.

Compared with C5U A15C C29A G68C, U7A G10A A20C C29A is higher in yeast fitness: no more than 0.5 for the first, 0.543 for the second.

First: A21C A36U A37G A42C U64A
Second: C46A U59C
The yeast fitness of the first is lower: no more than 0.5 for the first, 0.898 for the second.

U2C C4U G12A C62U and C22U C24A C30A A65U A69C cannot be ordered by yeast fitness: no more than 0.5 for the first, no more than 0.5 for the second.

Going from U16A G17A A20G C22G C61U G68C to U3G U26A U28G A45C U54C, the yeast fitness falls from 0.559 to no more than 0.5.

Compared with A14C G25C C66U, U13A C29A C31G A57U C60A G68C is lower in yeast fitness: 0.531 for the first, no more than 0.5 for the second.

First: A21C C30A C62U A70U
Second: A21G C55U
The yeast fitness of the first is lower: no more than 0.5 for the first, 0.704 for the second.

C5A A15U C31G G39A C61G and A14U G38C U47A A69U cannot be ordered by yeast fitness: no more than 0.5 for the first, no more than 0.5 for the second.

C11G A20C A45G and A14U U54C cannot be ordered by yeast fitness: no more than 0.5 for the first, no more than 0.5 for the second.
